This note sets out measurements from ChEMBL document CHEMBL2424610, “Design, synthesis, and evaluation of 4-(substituted)phenyl-2-thioxo-3,4-dihydro-1H-chromino[4,3-d]pyrimidin-5-one and 4-(substituted)phenyl-3,4-dihydro-1H-chromino[4,3-d]pyrimidine-2,5-dione analogs as antitubercular agents” (Med Chem Res, 2013).

≈ marks a conversion by molar mass, not a printed value.

The subject of experiment [1] is Mycobacterium tuberculosis. Put plainly: Antitubercular activity against Mycobacterium tuberculosis H37Rv ATCC 27294 assessed as growth inhibition by luminescence-based low oxygen-recovery assay. In kind it is functional.
Experiment [2] deals with Mycobacterium tuberculosis. The experiment is described as follows: microbe, parasite or virus in culture. Particulars: H37Rv ATCC 27294, 96 h.

With `CO[C@H]1/C=C/O[C@@]2(C)Oc3c(C)c(O)c4c(O)c(c(/C=N/N5CCN(C)CC5)c(O)c4c3C2=O)NC(=O)/C(C)=C\C=C\[C@H](C)[C@H](O)[C@@H](C)[C@@H](O)[C@@H](C)[C@H](OC(C)=O)[C@@H]1C` [RIFAMPIN], the MIC in experiment [1] was 3.8 µM (≈ 3.13 µg/mL); in experiment [2], 0.1 µM (≈ 0.0823 µg/mL).
